# Among all 300,000 compounds or so, about 5,400 (1.8%) were called active. The shares of active, inactive and inconclusive entries below differ from those in the screen. The call rests on the fitted dose curve; tested in HEK293 cells. A potency beside an inconclusive call is a rough fit, not a confirmed value.
# Experiment: qHTS for inhibitors of binding or entry into cells for Marburg Virus
# Conditions: Marburg virus pseudotyped entry inhibition, cell reporter; activity change, negative = inhibition: at 37.8 µM (top of the series) unless noted
# On the % scale 0 is the no-effect control and ±100 the full control effect; potency means the concentration at half of the fitted maximal effect.
SMILES,"activity change, negative = inhibition",Potency
CC(=O)c1ccc(S(=O)(=O)N2CCN(C(=O)CN3C(=O)NC4(CCCC4)C3=O)CC2)cc1,inactive: 16.7% [at 46.1 µM],
Cc1ccc(-n2nc(C(=O)c3ccccc3)n3c(=O)c(Cc4ccccc4)nnc23)cc1,,"inconclusive: 3.16 µM [inhibitor, partial curve, poor fit]"
COc1cc(NC(=O)CSc2ccc(-c3cccnc3)nn2)cc(OC)c1,inactive: -7.05%,
CCOc1ccc(-c2cc3nc(C4CCN(C(=O)OC(C)(C)C)CC4)c(C(=O)Nc4cc(OC)ccc4OC)cn3n2)cc1,,"inconclusive: 11.2 µM [inhibitor, single point]"
CC(C)c1ccc(C(=O)NNC(=O)C2CC=CCC2C(=O)O)cc1 (centres undefined),,"inconclusive: 11.2 µM [activator, partial curve, poor fit]"
CN(C)CCNC(=S)Nc1ccc(-c2nc3ccccc3[nH]2)cc1,,"inconclusive: 29.1 µM [inhibitor, single point]"
O=S(=O)(Nc1ccc(O)c2ccccc12)c1ccc(OC(F)(F)F)cc1,,"inconclusive: 20 µM [inhibitor, partial curve, poor fit]"
O=C(c1cc2c(=O)n3ccccc3nc2s1)N1CCN(Cc2ccc3c(c2)OCO3)CC1,inactive: -0.698% [at 46.1 µM],
CCn1cc(C(=O)O)c(=O)c2cc(F)c(N3CCN(C(=S)NC(=O)c4ccccc4C)CC3)cc21,inactive: -15.2% [at 46.1 µM],
O=c1c2ccccc2nc2n1CCN2Cc1ccc(Cl)cc1,,"inconclusive: 16.4 µM [inhibitor, partial curve, poor fit]"
Cc1ccc(/C=N/NC(=O)C(=O)N/N=C/c2ccc(C)o2)o1,inactive: -18.4% [at 46.1 µM],
O=C(CSc1nnc(SCc2ccccc2)s1)N/N=C/c1ccc(Cl)cc1Cl,,"inconclusive: 2.51 µM [activator, full curve, poor fit]"
COc1ccc2c(C)cc(Sc3nnnn3-c3ccccc3)nc2c1,,inactive
COc1cccc(N2CCN(C(=O)c3ccc(CS(=O)c4ccccc4C)o3)CC2)c1 (centres undefined),inactive: -45% [at 46.1 µM],
COC(=O)c1sc(NC(=O)CSc2nncs2)c(C(=O)OC)c1C,,"inconclusive: 35.5 µM [inhibitor, partial curve, poor fit]"
COCc1c(C(=O)OCc2nc(N)nc(Nc3ccccc3C)n2)oc2ccccc12,,active: 23.1 µM
Oc1ccc2ccccc2c1N=Nc1ccc(F)cc1,,inactive
COCCCNc1nnc(Cc2ccccc2)c2ccccc12,,"inconclusive: 3.55 µM [inhibitor, partial curve, poor fit]"
Cc1ccccc1-n1c(-c2ccco2)n[nH]c1=S,,"inconclusive: 17.8 µM [activator, partial curve, poor fit]"
O=C(NCCCc1ccccc1)c1ccccc1,inactive: 20.5%,
CCn1c(SCc2nnc(-c3ccccc3)o2)nnc1-c1ccc(S(=O)(=O)N2CCCC2)cc1,,inactive
CC(C)c1ccccc1NC(=O)c1cccc(NC(=O)c2ccccc2)c1,,"inconclusive: 20 µM [inhibitor, single point]"
CCCCOc1ccc(-c2nc(/C=N/c3nccs3)c(O)o2)cc1,,"inconclusive: 6.31 µM [activator, single point]"

SMILES,"activity change, negative = inhibition",Potency
CN1CCN(C(=O)CNC(=O)c2cccs2)CC1,inactive: 1.75%,
Cn1c(N)c(C(=O)/C=C/c2ccccc2)c(=O)[nH]c1=O,,"inconclusive: 5.62 µM [activator, single point]"
CCNC(=S)N/N=C/c1c(C)nn(-c2cccc(Cl)c2)c1Cl,,"inconclusive: 2.82 µM [inhibitor, full curve, poor fit]"
O=S(=O)(c1ccc2c(c1)OCCO2)N1CCC(O)(c2ccc(Cl)cc2)CC1,inactive: 7.76%,
Cc1c(NS(=O)(=O)c2cc(C(=O)NCCc3ccc(F)cc3)cc(Cl)c2Cl)c(=O)n(-c2ccccc2)n1C,,"inconclusive: 31.6 µM [activator, single point]"
O=C(NC1(C(F)(F)F)NC(=O)N(Cc2ccco2)C1=O)c1cccnc1 (centres undefined),inactive: -24.7%,
COc1cccc([C@@H]2Oc3ccc(OC)cc3C(=O)[C@H]2OC(=O)NCc2ccc3c(c2)OCO3)c1,,inactive
Cc1cccc(N(CC(O)CON=C2c3ccccc3-c3ccccc32)S(C)(=O)=O)c1 (centres undefined),,active: 23.1 µM
CCOc1ccccc1NC(=O)CC1Nc2cc(C)c(C)cc2NC1=O (centres undefined),,"inconclusive: 8.91 µM [inhibitor, partial curve, poor fit]"
CCOC(=O)CSc1nc(C2CC2)cc(-c2ccc(Cl)cc2)c1C#N,inactive: -1.11%,
O=C(Cn1c(=O)n(-c2ccccc2)c(=O)c2c3c(sc21)CCCC3)Nc1ccc(F)cc1F,,"inconclusive: 2.51 µM [activator, partial curve, poor fit]"
S=C1NCN(Cc2cccnc2)CN1,inactive: -25.6%,
O=C(CC1OC(=O)c2ccccc21)c1ccco1 (centres undefined),,"inconclusive: 0.58 µM [activator, full curve, poor fit]"
O=C(O)CCc1ccc(-c2ccccc2)n1Cc1ccco1,,"inconclusive: 31.6 µM [activator, single point]"
Cc1ccc(-c2nnc3ccc(SCC(=O)Nc4cc(C)on4)nn23)cc1,inactive: -9.77%,
Cc1ncsc1C(=O)Nc1cccc(C(F)(F)F)c1,,"inconclusive: 0.562 µM [inhibitor, full curve, poor fit]"
CC(Sc1nnc2ccccn12)C(=O)Nc1ccc2c(c1)OCO2 (centres undefined),,"inconclusive: 20 µM [activator, single point]"
COC(=O)C1=C(C)Nc2nc3ccccc3n2C1c1ccccc1F (centres undefined),,"inconclusive: 3.16 µM [inhibitor, single point]"
Cc1sc2nc(SCC(N)=O)n(C)c(=O)c2c1C,,"inconclusive: 10 µM [activator, partial curve, poor fit]"
O=C(COC(=O)Cc1ccc(Br)cc1)NCc1cccs1,inactive: -25.1%,
O=C(Nc1cccc(C(F)(F)F)c1)c1cccnc1N1CCN(c2ccccc2)CC1,,"inconclusive: 16.4 µM [inhibitor, single point]"
O=C(NCc1cccnc1)C(=O)N/N=C/c1ccc([N+](=O)[O-])cc1,inactive: 22.3% [at 46.1 µM],
CC1CC(C)CN(C(=O)Cn2c(=O)n(CCCCC(=O)NCc3ccco3)c(=O)c3ccccc32)C1 (centres undefined),,"inconclusive: 20 µM [activator, single point]"

SMILES,"activity change, negative = inhibition",Potency
O=C1CCC(C(=O)N2CCCCO2)CN1Cc1cccc(C(F)(F)F)c1 (centres undefined),,"inconclusive: 1.12 µM [activator, single point]"
Clc1ccc(COn2c(-c3ccc(Cl)cc3)nc3ccccc32)cc1,,"inconclusive: 29.1 µM [inhibitor, single point]"
O=C(CSc1nc(C2CC2)nc2ccccc12)Nc1ccccc1,,"inconclusive: 12.6 µM [inhibitor, partial curve]"
Cc1ccc(NC(=O)c2cc([N+](=O)[O-])ccc2N2CCOCC2)cc1S(=O)(=O)N1CCOCC1,,"inconclusive: 12.6 µM [inhibitor, partial curve, poor fit]"
COc1ccccc1-c1noc(-c2ccc(NC3CCCC3)c([N+](=O)[O-])c2)n1,inactive: -11.7% [at 46.1 µM],
CC(=O)c1ccc(NC(=O)CSCC(=O)Nc2ccc3ccccc3c2)cc1,,"inconclusive: 0.316 µM [activator, partial curve, poor fit]"
O=C(Nc1cccc(S(=O)(=O)N2CCCCCC2)c1)c1cncc(Br)c1,,"inconclusive: 10 µM [inhibitor, partial curve, poor fit]"
COc1ccc(S(=O)(=O)N2CCCCC2)cc1NC(=O)Cn1c(=O)cnc2ccccc21,inactive: 8.04%,
Cc1ccccc1OCCn1cc(/C=C(\C#N)C(=O)NCc2ccco2)c2ccccc21,inconclusive: 15.3% [activator],
O=C1NC(c2ccc(Br)cc2)Nc2sc3c(c21)CCC3 (centres undefined),,"inconclusive: 35.5 µM [activator, single point]"
CCC1(c2ccc(C)cc2)NC(=O)N(C(C)C(=O)Nc2ccc(N3CCOCC3)cc2)C1=O (centres undefined),inactive: 1.12%,
O=C(C(=O)N1CC=C(c2ccccc2)CC1)c1c[nH]c2ccccc12,inactive: 5.14%,
Cc1nn(-c2ccccc2)c(Cl)c1/C=N/Nc1ccc(Cl)c(C(=O)O)c1,,active: 2 µM
CC(=O)NS(=O)(=O)c1cccnc1Nc1cccc(Cl)c1C,,"inconclusive: 2.24 µM [activator, full curve, poor fit]"
COc1ccc(C)cc1NC(=O)c1cccc(C(=O)Nc2cc(C)ccc2OC)n1,inactive: 26.4%,
COc1cccc(-c2csc(/C(C#N)=C/Nc3cc4oc5ccccc5c4cc3OC)n2)c1,,"inconclusive: 0.562 µM [activator, full curve, poor fit]"
CC1CN(S(=O)(=O)c2cccc(C(=O)OCc3cc(=O)oc4cc(O)ccc34)c2)CC(C)O1 (centres undefined),,"inconclusive: 29.1 µM [inhibitor, single point]"
Cc1cccc(NS(=O)(=O)c2ccc(C(=O)NCCCN3CCCC3=O)cc2)c1C,,"inconclusive: 5.62 µM [inhibitor, partial curve, poor fit]"
CN1CCN(Cc2c(O)ccc3cc(Br)ccc23)CC1,,"inconclusive: 7.94 µM [inhibitor, partial curve, poor fit]"
O=C(COc1ccccc1)N1CCN(c2ccc([N+](=O)[O-])c(N3CCCCC3)c2)CC1,inactive: -13.1%,
CN(C)CCCC1(O)c2ccccc2CCc2ccccc21,,"inconclusive: 31.6 µM [inhibitor, single point]"
O=C1C=C(NCc2ccccc2)CCC1,,"inconclusive: 0.1 µM [inhibitor, full curve, poor fit]"
Cc1occc1C(=O)N1CCC2(CC1)OCCO2,,"inconclusive: 5.8 µM [activator, full curve, poor fit]"

# Four compounds picked at random from those above:
SMILES,"activity change, negative = inhibition",Potency
O=C(COc1ccccc1)N1CCN(c2ccc([N+](=O)[O-])c(N3CCCCC3)c2)CC1,inactive: -13.1%,
O=C1C=C(NCc2ccccc2)CCC1,,"inconclusive: 0.1 µM [inhibitor, full curve, poor fit]"
Cc1ccc(NC(=O)c2cc([N+](=O)[O-])ccc2N2CCOCC2)cc1S(=O)(=O)N1CCOCC1,,"inconclusive: 12.6 µM [inhibitor, partial curve, poor fit]"
COc1cccc(-c2csc(/C(C#N)=C/Nc3cc4oc5ccccc5c4cc3OC)n2)c1,,"inconclusive: 0.562 µM [activator, full curve, poor fit]"
